Values from PubChem BioAssay AID1259405 (NCATS, 2018)

Screen: 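Knock-downs that lift recombinant protein yield in hamster ovary cells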 (primary screen)
Cell system: Chinese hamster CHO-K1 ovary cells with stable secreted eGFP expression
Knock-down reagent: single siRNA against mouse genes, 0.8 pmol siRNA per well (2 µl of 400 nM stock)
Timing: 3 days
Measured: 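Per-well intracellular GFP measured by laser scanning cytometry, plus viability from ATP luminescence, each relative to plate median of non-targeting control wells, in %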
Reading the numbers: GFP, % of control: higher = more GFP per well, higher productivity; viability (ATP), % of control: higher = more viable cells (more ATP)
Rule for the call: 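Called active when intracellular GFP, relative to negative control, is at or above 120%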
The whole screen tested about 50,000 reagents; below is a random part of them. About 4,000 of them (8%) were called active. 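Mouse siRNA library applied to hamster cells; one well for each siRNA.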 The numbers tell different reagents against one gene apart.

| gene knocked down | siRNA no. | GFP, % of control | viability (ATP), % of control | call |
| --- | --- | --- | --- | --- |
| Chia1 | 1 | 88.7 | 66.4 | inactive |
| Chia1 | 2 | 71.2 | 81.3 | inactive |
| Chia1 | 3 | 46.4 | 49.8 | inactive |
| Adi1 | 1 | 80 | 95 | inactive |
| Adi1 | 2 | 134 | 90 | active |
| Adi1 | 3 | 135 | 60.3 | active |
| Ppa1 | 1 | 114 | 109 | inactive |
| Ppa1 | 2 | 57.1 | 75.5 | inactive |
| Ppa1 | 3 | 74.2 | 93.8 | inactive |
| Rara | 1 | 86.5 | 81.6 | inactive |
| Rara | 2 | 101 | 57.1 | inactive |
| Rara | 3 | 58.2 | 85.1 | inactive |
| Adora2b | 1 | 79.9 | 71.4 | inactive |
| Adora2b | 2 | 74.9 | 78.1 | inactive |
| Adora2b | 3 | 69.4 | 64.6 | inactive |
| Prps2 | 1 | 82.1 | 83.4 | inactive |
| Prps2 | 2 | 67.3 | 61.6 | inactive |
| Prps2 | 3 | 87.2 | 84.4 | inactive |
| Rbbp8nl | 1 | 83.3 | 65.1 | inactive |
| Rbbp8nl | 2 | 93.1 | 63.3 | inactive |
| Rbbp8nl | 3 | 1.76 | 4.74 | inactive |
| Or5p54 | 1 | 84.4 | 82 | inactive |
| Or5p54 | 2 | 122 | 94 | active |
| Or5p54 | 3 | 82.9 | 76.7 | inactive |
| Cd38 | 1 | 111 | 83.9 | inactive |
| Cd38 | 2 | 92.5 | 103 | inactive |
| Cd38 | 3 | 17.5 | 41.1 | inactive |
| Poldip3 | 1 | 125 | 94.1 | active |
| Poldip3 | 2 | 106 | 71.9 | inactive |
| Wnt9b | 1 | 42.6 | 41.7 | inactive |
| Wnt9b | 2 | 82.4 | 111 | inactive |
| Wnt9b | 3 | 123 | 82.5 | active |
| Fam177a | 1 | 48.1 | 60.7 | inactive |
| Fam177a | 2 | 91 | 74.4 | inactive |
| Fam177a | 3 | 40.9 | 54.3 | inactive |
| Or10d4c | 1 | 88 | 47.5 | inactive |
| Or10d4c | 2 | 38.9 | 58.1 | inactive |
| Or10d4c | 3 | 69.7 | 88.8 | inactive |
| Rps6ka6 | 1 | 108 | 121 | inactive |
| Rps6ka6 | 2 | 78.3 | 52.4 | inactive |
| Rps6ka6 | 3 | 80.3 | 85.7 | inactive |
| Exosc5 | 1 | 68.1 | 72.4 | inactive |
| Exosc5 | 2 | 118 | 92.9 | inactive |
| Exosc5 | 3 | 92.2 | 53.8 | inactive |
| Gsdma3 | 1 | 50.1 | 65.3 | inactive |
| Gsdma3 | 2 | 98.4 | 74.3 | inactive |
| Gsdma3 | 3 | 37.7 | 79 | inactive |
| Spag6l | 1 | 109 | 91.3 | inactive |
| Spag6l | 2 | 74.2 | 62.8 | inactive |
| Spag6l | 3 | 64.6 | 82.3 | inactive |
| Zfp386 | 1 | 31.9 | 44.8 | inactive |
| Zfp386 | 2 | 60.4 | 60.4 | inactive |
| Zfp386 | 3 | 104 | 65.1 | inactive |
| Cnot1 | 1 | 45.5 | 66 | inactive |
| Cnot1 | 2 | 58.2 | 43.8 | inactive |
| Cnot1 | 3 | 97.3 | 86.6 | inactive |
| Atg4a | 1 | 65.8 | 75.6 | inactive |
| Atg4a | 2 | 82.4 | 86.4 | inactive |
| Atg4a | 3 | 66.9 | 66.8 | inactive |
| Myl12a | 1 | 138 | 73.4 | active |
| Myl12a | 2 | 118 | 103 | inactive |
| Rbm4 | 1 | 148 | 133 | active |
| Rbm4 | 2 | 107 | 102 | inactive |
| Por | 1 | 41.9 | 81.7 | inactive |
| Por | 2 | 87.7 | 45.5 | inactive |
| Por | 3 | 79.2 | 64.9 | inactive |
| Mta1 | 1 | 46.3 | 61.9 | inactive |
| Mta1 | 2 | 44.9 | 64.7 | inactive |
| Mta1 | 3 | 69.2 | 73.4 | inactive |
| Aven | 1 | 37.6 | 47.1 | inactive |
| Aven | 2 | 84.4 | 93.1 | inactive |
| Rcn1 | 1 | 97.9 | 65.3 | inactive |
| Rcn1 | 2 | 66 | 50.8 | inactive |
| Dazl | 1 | 84 | 89.3 | inactive |
| Dazl | 2 | 102 | 98.6 | inactive |
| Dazl | 3 | 95.9 | 67.3 | inactive |
| Dnase2b | 1 | 60.3 | 77.5 | inactive |
| Dnase2b | 2 | 44.1 | 50 | inactive |
| Dnase2b | 3 | 55.3 | 43 | inactive |
| Gng7 | 1 | 111 | 104 | inactive |
| Gng7 | 2 | 111 | 69.3 | inactive |
| Gng7 | 3 | 25.1 | 48.4 | inactive |
| Nanos3 | 1 | 35.5 | 47 | inactive |
| Nanos3 | 2 | 19.1 | 35.6 | inactive |
| Nanos3 | 3 | 41.5 | 44.4 | inactive |

Reagents listed above with an active call (7):
| gene knocked down | siRNA no. | GFP, % of control | viability (ATP), % of control | call |
| --- | --- | --- | --- | --- |
| Adi1 | 2 | 134 | 90 | active |
| Adi1 | 3 | 135 | 60.3 | active |
| Or5p54 | 2 | 122 | 94 | active |
| Poldip3 | 1 | 125 | 94.1 | active |
| Wnt9b | 3 | 123 | 82.5 | active |
| Myl12a | 1 | 138 | 73.4 | active |
| Rbm4 | 1 | 148 | 133 | active |
